Test results from the supplement of paper PMC11006884.
This is a selection; strong and weak results do not stand in their true shares.

By UniProt entry, the sequences of proteins in these tests, tags left out. Where a name states a change or a piece, a line headed by the entry shows the natural chain unless it says otherwise.
UniProt Q14151: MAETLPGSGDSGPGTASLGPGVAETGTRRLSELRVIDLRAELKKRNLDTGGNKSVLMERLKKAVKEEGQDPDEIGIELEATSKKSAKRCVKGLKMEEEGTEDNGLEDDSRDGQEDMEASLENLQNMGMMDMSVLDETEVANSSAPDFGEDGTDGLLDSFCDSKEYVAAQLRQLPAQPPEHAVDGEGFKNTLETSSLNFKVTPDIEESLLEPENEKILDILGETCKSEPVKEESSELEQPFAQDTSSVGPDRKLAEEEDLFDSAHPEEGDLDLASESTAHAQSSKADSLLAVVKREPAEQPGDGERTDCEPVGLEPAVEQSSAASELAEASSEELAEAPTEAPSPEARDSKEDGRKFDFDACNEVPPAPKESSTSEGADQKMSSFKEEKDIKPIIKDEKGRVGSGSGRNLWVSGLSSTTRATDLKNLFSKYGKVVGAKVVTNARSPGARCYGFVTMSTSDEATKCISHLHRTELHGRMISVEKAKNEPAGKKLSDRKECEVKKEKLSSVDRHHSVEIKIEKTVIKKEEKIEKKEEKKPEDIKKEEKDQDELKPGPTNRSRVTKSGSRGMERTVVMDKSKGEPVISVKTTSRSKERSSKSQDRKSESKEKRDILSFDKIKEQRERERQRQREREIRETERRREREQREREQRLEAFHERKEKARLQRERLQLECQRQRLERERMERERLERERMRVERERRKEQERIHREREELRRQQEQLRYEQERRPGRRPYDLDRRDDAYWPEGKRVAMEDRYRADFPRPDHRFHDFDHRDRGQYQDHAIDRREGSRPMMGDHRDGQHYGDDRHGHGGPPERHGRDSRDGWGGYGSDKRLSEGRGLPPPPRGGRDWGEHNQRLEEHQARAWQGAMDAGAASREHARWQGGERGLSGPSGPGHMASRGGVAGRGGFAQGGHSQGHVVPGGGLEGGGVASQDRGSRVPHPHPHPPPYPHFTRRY
UniProt Q14690: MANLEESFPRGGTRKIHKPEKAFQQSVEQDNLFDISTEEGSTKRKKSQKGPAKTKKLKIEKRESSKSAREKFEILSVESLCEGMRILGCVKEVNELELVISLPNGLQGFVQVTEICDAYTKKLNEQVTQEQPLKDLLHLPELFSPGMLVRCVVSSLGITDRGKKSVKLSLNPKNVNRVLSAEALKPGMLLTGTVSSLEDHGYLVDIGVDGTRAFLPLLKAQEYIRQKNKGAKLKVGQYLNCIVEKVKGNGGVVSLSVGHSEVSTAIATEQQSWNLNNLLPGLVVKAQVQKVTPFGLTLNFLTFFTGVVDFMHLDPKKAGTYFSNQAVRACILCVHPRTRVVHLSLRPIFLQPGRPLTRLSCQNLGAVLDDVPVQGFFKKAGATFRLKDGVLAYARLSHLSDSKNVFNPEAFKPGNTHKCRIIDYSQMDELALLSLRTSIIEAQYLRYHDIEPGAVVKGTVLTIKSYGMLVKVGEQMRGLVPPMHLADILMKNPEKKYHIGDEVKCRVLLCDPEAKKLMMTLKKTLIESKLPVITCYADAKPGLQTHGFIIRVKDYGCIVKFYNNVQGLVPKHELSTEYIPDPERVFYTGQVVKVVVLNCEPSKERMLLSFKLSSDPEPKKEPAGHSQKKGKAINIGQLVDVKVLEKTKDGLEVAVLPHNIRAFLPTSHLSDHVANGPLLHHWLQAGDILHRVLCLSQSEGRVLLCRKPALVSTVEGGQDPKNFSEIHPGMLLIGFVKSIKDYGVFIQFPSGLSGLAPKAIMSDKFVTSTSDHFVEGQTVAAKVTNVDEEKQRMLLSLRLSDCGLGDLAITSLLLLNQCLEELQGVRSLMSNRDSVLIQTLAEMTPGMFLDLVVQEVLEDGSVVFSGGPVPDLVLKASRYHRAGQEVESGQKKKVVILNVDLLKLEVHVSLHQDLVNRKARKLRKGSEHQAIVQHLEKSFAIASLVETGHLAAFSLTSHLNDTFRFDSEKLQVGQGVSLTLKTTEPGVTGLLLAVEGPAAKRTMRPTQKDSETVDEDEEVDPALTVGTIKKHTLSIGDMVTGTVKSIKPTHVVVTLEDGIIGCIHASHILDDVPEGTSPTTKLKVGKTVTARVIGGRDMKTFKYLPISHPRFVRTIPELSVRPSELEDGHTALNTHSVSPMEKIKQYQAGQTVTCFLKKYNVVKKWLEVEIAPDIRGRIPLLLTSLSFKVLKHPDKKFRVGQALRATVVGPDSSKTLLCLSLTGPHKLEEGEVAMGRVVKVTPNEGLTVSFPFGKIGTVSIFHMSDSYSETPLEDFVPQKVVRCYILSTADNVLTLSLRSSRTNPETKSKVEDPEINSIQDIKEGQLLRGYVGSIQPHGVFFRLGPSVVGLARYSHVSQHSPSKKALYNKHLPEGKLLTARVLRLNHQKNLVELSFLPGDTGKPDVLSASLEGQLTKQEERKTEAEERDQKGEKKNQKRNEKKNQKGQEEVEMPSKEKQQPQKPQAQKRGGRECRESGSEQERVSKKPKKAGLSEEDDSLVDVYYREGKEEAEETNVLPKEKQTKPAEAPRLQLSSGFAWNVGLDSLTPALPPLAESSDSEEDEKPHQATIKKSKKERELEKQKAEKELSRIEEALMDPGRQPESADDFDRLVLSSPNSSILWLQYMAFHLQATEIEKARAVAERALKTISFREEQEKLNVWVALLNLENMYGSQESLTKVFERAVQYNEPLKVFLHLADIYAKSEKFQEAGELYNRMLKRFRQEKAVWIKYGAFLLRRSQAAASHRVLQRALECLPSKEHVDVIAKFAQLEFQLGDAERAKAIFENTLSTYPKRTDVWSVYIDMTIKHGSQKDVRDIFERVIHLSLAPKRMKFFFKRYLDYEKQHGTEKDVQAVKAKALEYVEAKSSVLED
UniProt Q14141: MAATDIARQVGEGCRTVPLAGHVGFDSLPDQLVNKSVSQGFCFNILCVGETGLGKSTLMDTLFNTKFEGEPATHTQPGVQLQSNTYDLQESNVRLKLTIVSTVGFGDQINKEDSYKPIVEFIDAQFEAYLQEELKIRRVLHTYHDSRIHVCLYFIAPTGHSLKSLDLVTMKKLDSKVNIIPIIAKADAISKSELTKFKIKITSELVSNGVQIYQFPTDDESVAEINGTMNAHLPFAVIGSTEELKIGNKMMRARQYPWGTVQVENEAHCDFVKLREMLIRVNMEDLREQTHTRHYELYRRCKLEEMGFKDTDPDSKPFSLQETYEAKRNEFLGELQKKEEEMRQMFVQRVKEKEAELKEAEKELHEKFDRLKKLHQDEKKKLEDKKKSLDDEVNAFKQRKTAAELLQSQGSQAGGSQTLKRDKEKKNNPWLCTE
UniProt Q14694, whole entry, looked up: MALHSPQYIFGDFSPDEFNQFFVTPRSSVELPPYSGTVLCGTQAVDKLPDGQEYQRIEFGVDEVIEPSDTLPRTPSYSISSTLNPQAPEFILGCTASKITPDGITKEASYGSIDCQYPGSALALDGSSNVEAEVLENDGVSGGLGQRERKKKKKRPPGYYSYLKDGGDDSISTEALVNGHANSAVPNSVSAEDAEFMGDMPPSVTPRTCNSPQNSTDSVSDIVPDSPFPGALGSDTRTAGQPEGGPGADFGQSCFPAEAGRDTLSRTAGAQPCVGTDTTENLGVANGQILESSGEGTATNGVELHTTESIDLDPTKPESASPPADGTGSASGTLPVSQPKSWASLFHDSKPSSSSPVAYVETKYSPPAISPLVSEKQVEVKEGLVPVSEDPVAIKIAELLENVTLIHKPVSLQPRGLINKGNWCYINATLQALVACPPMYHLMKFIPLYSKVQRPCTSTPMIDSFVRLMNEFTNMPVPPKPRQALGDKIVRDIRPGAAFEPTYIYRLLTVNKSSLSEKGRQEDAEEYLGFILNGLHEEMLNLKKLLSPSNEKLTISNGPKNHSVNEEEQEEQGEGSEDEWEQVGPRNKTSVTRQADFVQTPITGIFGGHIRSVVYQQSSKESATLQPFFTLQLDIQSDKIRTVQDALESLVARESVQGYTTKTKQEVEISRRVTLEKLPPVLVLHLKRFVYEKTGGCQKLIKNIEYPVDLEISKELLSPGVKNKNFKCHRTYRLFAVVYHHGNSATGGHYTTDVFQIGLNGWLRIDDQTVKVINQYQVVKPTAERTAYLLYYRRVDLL
UniProt Q13509, whole entry, looked up: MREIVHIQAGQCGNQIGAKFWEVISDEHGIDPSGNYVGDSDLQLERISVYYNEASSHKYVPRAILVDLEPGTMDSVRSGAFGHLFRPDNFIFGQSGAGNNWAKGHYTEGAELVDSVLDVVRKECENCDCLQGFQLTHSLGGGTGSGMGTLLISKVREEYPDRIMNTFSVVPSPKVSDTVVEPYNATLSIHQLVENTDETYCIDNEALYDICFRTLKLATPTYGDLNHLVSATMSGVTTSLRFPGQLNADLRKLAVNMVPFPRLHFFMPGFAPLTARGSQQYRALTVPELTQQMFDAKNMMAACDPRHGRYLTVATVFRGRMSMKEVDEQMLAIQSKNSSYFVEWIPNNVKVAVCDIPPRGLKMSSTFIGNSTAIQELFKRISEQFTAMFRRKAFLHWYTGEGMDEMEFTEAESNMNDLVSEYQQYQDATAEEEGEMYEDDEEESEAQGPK
UniProt Q14676: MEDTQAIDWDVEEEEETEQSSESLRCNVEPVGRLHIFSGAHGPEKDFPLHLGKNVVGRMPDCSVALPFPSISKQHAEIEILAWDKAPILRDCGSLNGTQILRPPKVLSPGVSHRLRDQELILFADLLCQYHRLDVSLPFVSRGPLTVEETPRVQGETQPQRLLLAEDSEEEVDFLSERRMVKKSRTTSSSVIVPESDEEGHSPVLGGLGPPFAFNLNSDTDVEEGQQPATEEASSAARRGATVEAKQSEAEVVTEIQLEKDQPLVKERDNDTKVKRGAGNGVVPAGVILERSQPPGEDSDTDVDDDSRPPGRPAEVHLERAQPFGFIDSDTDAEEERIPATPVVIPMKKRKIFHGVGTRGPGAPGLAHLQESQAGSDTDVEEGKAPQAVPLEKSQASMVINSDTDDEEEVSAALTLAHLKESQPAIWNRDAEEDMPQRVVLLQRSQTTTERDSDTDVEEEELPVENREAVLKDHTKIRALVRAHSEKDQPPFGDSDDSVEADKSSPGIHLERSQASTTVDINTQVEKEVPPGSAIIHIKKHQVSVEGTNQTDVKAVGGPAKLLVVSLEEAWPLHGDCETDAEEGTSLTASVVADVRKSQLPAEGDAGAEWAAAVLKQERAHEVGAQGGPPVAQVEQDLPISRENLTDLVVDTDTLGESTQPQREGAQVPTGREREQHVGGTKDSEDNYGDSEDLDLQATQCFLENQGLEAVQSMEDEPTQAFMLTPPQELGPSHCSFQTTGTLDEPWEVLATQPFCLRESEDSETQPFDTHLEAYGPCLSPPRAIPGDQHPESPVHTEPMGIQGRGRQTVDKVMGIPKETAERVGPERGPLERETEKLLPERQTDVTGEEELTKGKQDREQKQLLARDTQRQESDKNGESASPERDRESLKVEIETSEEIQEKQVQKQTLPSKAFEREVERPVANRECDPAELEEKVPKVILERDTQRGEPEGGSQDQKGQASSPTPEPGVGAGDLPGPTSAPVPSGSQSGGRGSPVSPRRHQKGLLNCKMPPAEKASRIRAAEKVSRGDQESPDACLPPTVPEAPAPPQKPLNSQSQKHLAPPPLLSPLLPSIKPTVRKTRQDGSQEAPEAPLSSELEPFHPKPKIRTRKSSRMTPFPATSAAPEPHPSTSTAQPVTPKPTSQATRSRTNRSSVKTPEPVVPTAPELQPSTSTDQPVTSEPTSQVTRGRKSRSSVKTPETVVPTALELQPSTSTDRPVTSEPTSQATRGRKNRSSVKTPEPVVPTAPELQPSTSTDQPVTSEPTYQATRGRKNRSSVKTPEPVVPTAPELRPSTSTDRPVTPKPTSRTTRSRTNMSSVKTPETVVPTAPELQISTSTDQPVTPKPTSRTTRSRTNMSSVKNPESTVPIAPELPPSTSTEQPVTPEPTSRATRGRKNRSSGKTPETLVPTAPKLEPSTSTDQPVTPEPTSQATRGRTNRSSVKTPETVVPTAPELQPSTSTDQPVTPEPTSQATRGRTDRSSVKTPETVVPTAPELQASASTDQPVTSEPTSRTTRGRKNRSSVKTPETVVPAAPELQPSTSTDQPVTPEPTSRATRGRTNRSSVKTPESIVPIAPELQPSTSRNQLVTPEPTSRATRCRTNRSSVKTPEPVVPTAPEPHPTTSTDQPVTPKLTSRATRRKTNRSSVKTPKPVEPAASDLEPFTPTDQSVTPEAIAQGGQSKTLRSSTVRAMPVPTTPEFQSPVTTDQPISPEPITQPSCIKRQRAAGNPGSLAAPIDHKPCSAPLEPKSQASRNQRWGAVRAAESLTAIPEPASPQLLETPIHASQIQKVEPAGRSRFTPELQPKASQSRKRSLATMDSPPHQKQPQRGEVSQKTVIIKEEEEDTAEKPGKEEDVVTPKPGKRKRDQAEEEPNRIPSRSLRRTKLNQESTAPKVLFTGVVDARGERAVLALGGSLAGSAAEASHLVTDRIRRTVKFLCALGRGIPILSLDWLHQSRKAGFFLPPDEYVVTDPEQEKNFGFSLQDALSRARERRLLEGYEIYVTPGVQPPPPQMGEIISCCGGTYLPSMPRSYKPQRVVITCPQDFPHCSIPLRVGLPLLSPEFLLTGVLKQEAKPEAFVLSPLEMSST

The targets below were run with COC(=O)C#Cc1ccccc1 [methyl 3-phenylpropiolate] (assay: log2 ratio of iodoacetamide-alkyne labeling of the cysteine site, DMSO over compound (competition); higher = stronger covalent engagement of the cysteine by the compound, active = 1 or more). Conditions: 500 µM; treatment time 1 h; system: HEK293T cell lysate.
Summary of the method: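 HEK293T lysate at 2 mg/mL was treated with vehicle or electrophile (500 µM) for 1 h at ambient temperature, then labelled with iodoacetamide alkyne (1 h), clicked to sCIP-TMT reagents, pooled, digested with trypsin overnight at 37 °C, enriched on streptavidin and eluted with acid. Peptides were analysed by Orbitrap Eclipse LC-MS/MS with FAIMS and quantified in FragPipe, using duplicate channels and three replicates, with cysteines quantified in only one replicate excluded. The log2 competition ratio for each cysteine is the mean control-channel reporter intensity divided by the mean compound-channel reporter intensity.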

log2 ratio of iodoacetamide-alkyne labeling, inactive:
SAFB2 C224 (UniProt Q14151) 0.0642, PDCD11 C151 (UniProt Q14690) 0.508, RRP1B C197 (UniProt Q14684) -0.00154, NCAPD2 C772 (UniProt Q15021) -0.0709, UniProt Q14141_C42 -0.333, USP10 C456 (UniProt Q14694) 0.314, EIF3A C198 (UniProt Q14152) 0.211, NCAPH C714 (UniProt Q15003) 0.0945, FHL1 C209 (UniProt Q13642) 0.0707, CKAP5 C441 (UniProt Q14008) 0.364, SQSTM1 C289 (UniProt Q13501) 0.896, TUBB3 C303 (UniProt Q13509) 0.517, SQSTM1 C290 (UniProt Q13501) 0.896, TRIP12 C332 (UniProt Q14669) 0.439, MDC1 C1720 (UniProt Q14676) 0.5
